From the supplement of paper PMC8728848
The other results are listed elsewhere or left out.

Tests used:
Assay in all cases: glycan array binding signal (z-score within array); higher = stronger binding
Details in all cases: glycan notation: IUPAC condensed, linker removed
[1] = target: Neu5Ac(a2-6)Gal(b1-4)GlcNAc(b1-2)Man(a1-3)[Neu5Ac(a2-3)Gal(b1-4)GlcNAc(b1-2)Man(a1-6)]Man(b1-4)GlcNAc(b1-4)GlcNAc
Outline: (§1)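 Negative Z-scores can be read as non-binding. The Z-score is calculated within each array and then averaged across arrays of one protein sequence at different concentrations or buffers and across linkers. Arrays, 3228 in all, were curated from the Consortium for Functional Glycomics database and kept only where the protein sequence was available.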

[2] = target: Neu5Ac(a2-6)Gal(b1-4)GlcNAc(b1-2)Man(a1-3)[Neu5Ac(a2-6)Gal(b1-4)GlcNAc(b1-2)Man(a1-6)]Man(b1-4)GlcNAc(b1-4)GlcNAc
Outline: as §1

[3] = target: Neu5Ac(a2-6)Gal(b1-4)GlcNAc(b1-2)Man(a1-3)[Neu5Ac(a2-6)Gal(b1-4)GlcNAc(b1-2)Man(a1-6)]Man(b1-4)GlcNAc(b1-4)[Fuc(a1-6)]GlcNAc
Outline: as §1

[4] = target: Neu5Ac(a2-6)Gal(b1-4)GlcNAc(b1-2)Man(a1-6)Man(b1-4)GlcNAc(b1-4)GlcNAc
Outline: as §1

[5] = target: Neu5Ac(a2-6)Gal(b1-4)GlcNAc(b1-2)Man(a1-6)[Gal(b1-4)GlcNAc(b1-2)Man(a1-3)]Man(b1-4)GlcNAc(b1-4)GlcNAc
Outline: as §1

[6] = target: Neu5Ac(a2-6)Gal(b1-4)GlcNAc(b1-2)Man(a1-6)[GlcNAc(b1-2)Man(a1-3)]Man(b1-4)GlcNAc(b1-4)GlcNAc
Outline: as §1

[7] = target: Neu5Ac(a2-6)Gal(b1-4)GlcNAc(b1-2)Man(a1-6)[Man(a1-3)]Man(b1-4)GlcNAc(b1-4)GlcNAc
Outline: as §1

[8] = target: Neu5Ac(a2-6)Gal(b1-4)GlcNAc(b1-2)[Neu5Ac(a2-6)Gal(b1-4)GlcNAc(b1-4)]Man(a1-3)[GlcNAc(b1-4)][Neu5Ac(a2-6)Gal(b1-4)GlcNAc(b1-2)[Neu5Ac(a2-6)Gal(b1-4)GlcNAc(b1-6)]Man(a1-6)]Man(b1-4)GlcNAc(b1-4)GlcNAc
Outline: as §1

[9] = target: Neu5Ac(a2-6)Gal(b1-4)GlcNAc(b1-2)[Neu5Ac(a2-6)Gal(b1-4)GlcNAc(b1-4)]Man(a1-3)[GlcNAc(b1-4)][Neu5Ac(a2-6)Gal(b1-4)GlcNAc(b1-4)Man(a1-6)]Man(b1-4)GlcNAc(b1-4)GlcNAc
Outline: as §1

[10] = target: Neu5Ac(a2-6)Gal(b1-4)GlcNAc(b1-2)[Neu5Ac(a2-6)Gal(b1-4)GlcNAc(b1-6)]Man(a1-6)[Neu5Ac(a2-6)Gal(b1-4)GlcNAc(b1-2)Man(a1-3)][GlcNAc(b1-4)]Man(b1-4)GlcNAc(b1-4)GlcNAc
Outline: as §1

[11] = target: Neu5Ac(a2-6)Gal(b1-4)GlcNAc(b1-3)Gal(b1-3)GlcNAc
Outline: as §1

[12] = target: Neu5Ac(a2-6)Gal(b1-4)GlcNAc(b1-3)Gal(b1-4)GlcNAc
Outline: as §1

[13] = target: Neu5Ac(a2-6)Gal(b1-4)GlcNAc(b1-3)Gal(b1-4)GlcNAc(b1-2)Man(a1-3)[Neu5Ac(a2-6)Gal(b1-4)GlcNAc(b1-3)Gal(b1-4)GlcNAc(b1-2)Man(a1-6)]GalNAc
Outline: as §1

[14] = target: Neu5Ac(a2-6)Gal(b1-4)GlcNAc(b1-3)Gal(b1-4)GlcNAc(b1-3)Gal(b1-4)GlcNAc
Outline: as §1

[15] = target: Neu5Ac(a2-6)Gal(b1-4)GlcNAc(b1-3)Gal(b1-4)GlcNAc(b1-3)Gal(b1-4)GlcNAc(b1-2)Man(a1-3)[Neu5Ac(a2-6)Gal(b1-4)GlcNAc(b1-3)Gal(b1-4)GlcNAc(b1-3)Gal(b1-4)GlcNAc(b1-2)Man(a1-6)]GalNAc
Outline: as §1

[16] = target: Neu5Ac(a2-6)Gal(b1-4)GlcNAc(b1-3)Gal(b1-4)GlcNAc(b1-3)GalNAc
Outline: as §1

[17] = target: Neu5Ac(a2-6)Gal(b1-4)GlcNAc(b1-3)Gal(b1-4)GlcNAc(b1-3)[Neu5Ac(a2-6)Gal(b1-4)GlcNAc(b1-3)Gal(b1-4)GlcNAc(b1-6)]GalNAc
Outline: as §1

[18] = target: Neu5Ac(a2-6)Gal(b1-4)GlcNAc(b1-3)Gal(b1-4)GlcNAc(b1-6)[Gal(b1-3)]GalNAc
Outline: as §1

[19] = target: Neu5Ac(a2-6)Gal(b1-4)GlcNAc(b1-3)Gal(b1-4)[Fuc(a1-3)]GlcNAc(b1-3)Gal(b1-4)[Fuc(a1-3)]GlcNAc
Outline: as §1

[20] = target: Neu5Ac(a2-6)Gal(b1-4)GlcNAc(b1-3)GalNAc
Outline: as §1

[21] = target: Neu5Ac(a2-6)Gal(b1-4)GlcNAc(b1-3)[Neu5Ac(a2-6)Gal(b1-4)GlcNAc(b1-6)]GalNAc
Outline: as §1

[22] = target: Neu5Ac(a2-6)Gal(b1-4)GlcNAc(b1-6)GalNAc
Outline: as §1

[23] = target: Neu5Ac(a2-6)Gal(b1-4)GlcNAc(b1-6)[Gal(b1-3)GlcNAc(b1-3)]Gal(b1-4)Glc
Outline: as §1

[24] = target: Neu5Ac(a2-6)Gal(b1-4)GlcNAc(b1-6)[Gal(b1-3)]GalNAc
Outline: as §1

[25] = target: Neu5Ac(a2-6)Gal(b1-4)GlcNAc6S
Outline: as §1

Neu5Ac(a2-6)GalNAc = target: Neu5Ac(a2-6)GalNAc
Outline: as §1

[26] = target: Neu5Ac(a2-6)GalNAc(b1-4)GlcNAc
Outline: as §1

[27] = target: Neu5Ac(a2-6)GalNAc(b1-4)GlcNAc6S
Outline: as §1

[28] = target: Neu5Ac(a2-6)GlcNAc(b1-4)GlcNAc
Outline: as §1

[29] = target: Neu5Ac(a2-6)GlcNAc(b1-4)GlcNAc(b1-4)GlcNAc
Outline: as §1

B1: truncCC1G-10077 (Coprinopsis cinerea) (protein)
chain: MHHHHHHHHPLPSPGPGWVLIQNGGTGKFLCSTPSGDIGTADGPETVYDYSVQWRFIQREYTGVYHVVNRATGAYLRQIGTSMPSIGLAEENDDELKDWWMLETYDNSEIGLASIISRWTGNVLDHYGGVSVQALDNNTENSYRSWAIIPARDWLTSFSLVNGQGGLCLAAQYAREETRLSTTANVNDFHAQWVFRKPSGSSGYTIQNKYNNHYVGGTSARWELVVCCNKYFGIRNTSTQKYLAIEDGQVTFQDQDMTDRKQCWELCSGRATDTSGNDYDLIYMDDDLLEVMIPWVGDKQGDLKHYIEKRATKKPPKDKGGWQLPAAGLIKKPKFNDIRQLLQELIEQWEWDVVNEEREQIQTLVSIDEAEARRLLGRRPHPDIVAAYQRSRSSTLFRIDRQGYFNIAGDRYVNIQGQYGDDSYFHIALPVGVRFGREQIRRFLRDSLDRSTSVTITPTTCKPPSGGPDYNRDPDSDGDNSWIKWTIAVVGTSAIKHSEL
Q: B1 was tested. Which “glycan array binding signal (z-score)” value [1] did it give?
A: -0.628

Q: And the “glycan array binding signal (z-score)” value [2]?
A: 0.197

Q: What about the “glycan array binding signal (z-score)” value [3] of the same binder?
A: 0.685

Q: And the “glycan array binding signal (z-score)” value [4]?
A: -0.572

Q: What about the “glycan array binding signal (z-score)” value [5] of the same binder?
A: -1.13

Q: What about the “glycan array binding signal (z-score)” value [6] of the same binder?
A: -0.42

Q: What about the “glycan array binding signal (z-score)” value [7] of the same binder?
A: -0.343

Q: And the “glycan array binding signal (z-score)” value [8]?
A: -0.318

Q: And the “glycan array binding signal (z-score)” value [9]?
A: 0.129

Q: And the “glycan array binding signal (z-score)” value [10]?
A: 0.06

Q: And the “glycan array binding signal (z-score)” value [11]?
A: -0.962

Q: And the “glycan array binding signal (z-score)” value [12]?
A: -0.51

Q: What about the “glycan array binding signal (z-score)” value [13] of the same binder?
A: 0.292

Q: What about the “glycan array binding signal (z-score)” value [14] of the same binder?
A: -0.137

Q: And the “glycan array binding signal (z-score)” value [15]?
A: 1.79

Q: And the “glycan array binding signal (z-score)” value [16]?
A: 2.07

Q: What about the “glycan array binding signal (z-score)” value [17] of the same binder?
A: -0.092

Q: And the “glycan array binding signal (z-score)” value [18]?
A: 0.521

Q: And the “glycan array binding signal (z-score)” value [19]?
A: 0.063

Q: And the “glycan array binding signal (z-score)” value [20]?
A: 0.54

Q: What about the “glycan array binding signal (z-score)” value [21] of the same binder?
A: 0.773

Q: And the “glycan array binding signal (z-score)” value [22]?
A: 3.21

Q: And the “glycan array binding signal (z-score)” value [23]?
A: -0.462

Q: And the “glycan array binding signal (z-score)” value [24]?
A: 0.215

Q: And the “glycan array binding signal (z-score)” value [25]?
A: -0.367

Q: And the “glycan array binding signal (z-score)” value (Neu5Ac(a2-6)GalNAc)?
A: -0.759

Q: And the “glycan array binding signal (z-score)” value [26]?
A: -1.11

Q: And the “glycan array binding signal (z-score)” value [27]?
A: -0.305

Q: What about the “glycan array binding signal (z-score)” value [28] of the same binder?
A: -0.836

Q: And the “glycan array binding signal (z-score)” value [29]?
A: -0.952
